Among all 320,000 compounds or so, about 22,000 (6.9%) were called active. Inconclusive means that the source gave no clear call. Such entries were picked first, then a sample of the others. Calls come from the whole dose curve; as a rule, active = well fitted inhibition curve with a large enough effect; inconclusive = small, poorly fitted or top-dose-only effect, or another doubt; inactive = no such curve, though single readings can be large or run the other way. A potency beside an inconclusive call is a rough fit, not a confirmed value.
Test: Primary qHTS for delayed death inhibitors of the malarial parasite plastid, 96 hour incubation
Settings: P. falciparum luciferase reporter growth; series mostly up to 28.7 µM
Outline: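 P. falciparum expressing integrated firefly luciferase grown in erythrocytes (2% hematocrit, 0.05% parasitemia final) with compounds for 96 hours at 37 C, 5% CO2. Growth inhibition read as loss of luminescence after adding luciferase detection reagent.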
Potency is the fitted concentration of half-maximal effect.

Structure (SMILES)	Potency
c1nnc(NC2=NCCCCC2)s1	active: 5.86 µM
O=C(/C=C/c1ccccc1)OCc1ccccc1	inactive
CC(=O)Nc1ccc(-c2cc(-c3ccc(NC(C)=O)cc3)nc(-c3ccc(NC(C)=O)cc3)n2)cc1	inconclusive: 5.22 µM [inhibitor, partial curve, poor fit]
O=C1C(=O)N(CCO)C(c2ccc(Br)cc2)/C1=C(\O)c1ccccc1 (centres undefined)	inactive
O=C(CN1CCN(CC(=O)c2ccc(F)cc2)CC1)Nc1ccccc1Cl	inactive
O=C(Cc1cccs1)Nc1ccc(-c2nnc(-c3ccco3)o2)cc1	inactive
C=CCn1c(SCc2nc3ccccc3[nH]2)nnc1-c1cccc(OC)c1	inconclusive: 8.28 µM [inhibitor, partial curve, poor fit]
Cc1cc(C)n(-c2nc3ccccc3nc2Nc2ccc(CC(=O)O)cc2)n1	inconclusive: 9.28 µM [inhibitor, partial curve, poor fit]
CCCCc1nc(N2CCOCC2)c(C#N)c2c1COC(C)(C)C2	active: 9.28 µM
COc1ccc(CC(=O)NCc2nn(-c3ccccc3)nc2C)cc1OC	inactive
CC(C)n1c(/N=C/c2ccccc2O)nc2ccccc21	inconclusive: 18.5 µM [inhibitor, single point]
COc1ccc(Nc2cc(C(=O)NCCCN3CCOCC3)c3ccccc3n2)cc1	inactive
Cc1ccc(OCC(=O)N/N=C\c2ccncc2)c(C)c1	inactive
O=C(CN1CCN(Cc2ccc3c(c2)OCO3)CC1)N1c2ccccc2Sc2ccccc21	inconclusive: 15.1 µM [inhibitor, single point]
CCN(CC)c1ccc(/C=C2\C(=O)NC(=S)N(C)C2=O)o1	inactive
CSc1ccc(/C=N/NC(=O)c2cccc(O)c2)cc1	inactive
COc1ccc(C2(C)NC(=O)N(CC(=O)Nc3ccc4c(c3)OCO4)C2=O)cc1OC (centres undefined)	inconclusive: 18.5 µM [inhibitor, single point]
CCOC(=O)C1=C(C)NC(C)=C(C(=O)OCC)C1c1ccc([N+](=O)[O-])s1	active: 13.1 µM
CN(C(=S)NC(=O)C1(C)CC1(Cl)Cl)c1ccccc1 (centres undefined)	inconclusive: 0.329 µM [inhibitor, full curve, poor fit]
Cc1ccc(-c2nc(N/N=C/c3cccnc3)c3ccccc3n2)cc1	inconclusive: 18.5 µM [inhibitor, single point]
CN(CC(CC(=O)Nc1nncs1)c1ccccc1)S(=O)(=O)c1ccccc1 (centres undefined)	inconclusive: 0.0828 µM [inhibitor, full curve, poor fit]
O=C(CCC(=O)N1CCN(S(=O)(=O)c2ccc(Cl)cc2)CC1)Nc1ccc(Cl)cc1Cl	inconclusive: 10.4 µM [inhibitor, partial curve, poor fit]
COc1ccc(Sc2nc(-c3ccccc3)ncc2OC)cc1	inactive
CCN(CC)CCN(C(=O)c1ccc2ncsc2c1)c1nc2cc3c(cc2s1)OCO3	inactive
O=C(CN1CCN(C(=O)c2ccco2)CC1)Nc1cccc(S(=O)(=O)N2CCCC2)c1	active: 10.4 µM

Structure (SMILES)	Potency
CCOc1ccc(S(=O)(=O)N(CC)CC(=O)NCc2ccncc2)cc1	inactive
COc1ccc(CN2CCC(c3nc4ccc(Cl)cc4[nH]3)CC2)cc1	inconclusive: 8.28 µM [inhibitor, partial curve]
COc1ccc(N(CC(=O)NCCSc2ccccc2)S(C)(=O)=O)cc1	inconclusive: 13.1 µM [inhibitor, single point]
CCC(=O)N1c2ccc(C)cc2C2=NNC(=S)NC21O (centres undefined)	inactive
NNc1nc2sc3c(c2c(=O)n1-c1ccccc1)CCCC3	inactive
O=c1[nH]c(NCc2ccccc2)nc2c1CCCC2	active: 8.28 µM
Cc1ccsc1CN(C)C(=O)CN1C(=O)NC2(CCCCC2C)C1=O (centres undefined)	inconclusive: 18.5 µM [inhibitor, single point]
CC(Oc1ccccc1)C(=O)Nc1nc(-c2ccncc2)cs1 (centres undefined)	inactive
COc1ccc(NC2CCCN(C(=O)CSc3ccccc3)C2)cc1OC (centres undefined)	inactive
CC(=O)N1N=C(c2ccccc2)CC1c1ccccc1 (centres undefined)	inconclusive: 18.5 µM [inhibitor, single point]
Cc1cccc(C(=O)NNc2ncnc3c2cnn3C)c1	inactive
O=C(N/N=C/c1ccc([N+](=O)[O-])o1)C(O)c1ccccc1 (centres undefined)	inconclusive: 1.65 µM [inhibitor, full curve]
COc1ccccc1C(CNC(=O)c1ccc(OCc2c(C)noc2C)cc1)N1CCCC1 (centres undefined)	active: 10.4 µM
CCCCCCn1ccc(=N)cc1	active: 0.465 µM
CC(C)NC(=O)c1sc(=S)n2c1[nH]c(=O)c1ccc(C(=O)NCCc3ccc(Cl)cc3)cc12	inconclusive: 14.7 µM [inhibitor, partial curve]
Cc1cccc(NS(=O)(=O)c2cc(C(=O)OC(C)C(=O)NCc3ccc4c(c3)OCO4)ccc2C)c1 (centres undefined)	inconclusive: 10.4 µM [inhibitor, single point]
COc1cccc(-c2nn(-c3ccc(C)cc3)cc2C(=O)N2CCc3cc(OC)c(OC)cc3C2)c1	inconclusive: 18.5 µM [inhibitor, single point]
CCc1ccc(-c2nc(CS(=O)CC(=O)NCCCN3CCOCC3)c(C)o2)cc1 (centres undefined)	active: 7.38 µM
O=C(COC(=O)CNS(=O)(=O)c1cccc(Br)c1)NC(=O)Nc1ccc2c(c1)OCCO2	inactive
CN1CCN(c2ccc(NC(=O)CN3CCOCC3)cc2F)CC1	inconclusive: 18.5 µM [inhibitor, single point]
O=C1CCC/C1=C\Nc1ccc(Cl)c([N+](=O)[O-])c1	inactive
CCS(=O)(=O)N1CCN(c2ccccc2F)CC1	inactive
Cc1ccc([N+](=O)[O-])cc1NC(=O)CN1CCCCC1	inconclusive: 18.5 µM [inhibitor, partial curve, poor fit]
O=C(c1ccc(Cl)cc1)N1CCCCC(Cl)C1=O (centres undefined)	inactive
COc1cc(OC)c(C(=O)N(CCc2ccccc2)Cc2ccccc2)cc1OC	inconclusive: 4.65 µM [inhibitor, partial curve, poor fit]

Structure (SMILES)	Potency
Cc1ccc2cc(C(c3nnnn3Cc3ccccc3)N3CCc4ccccc43)c(=O)[nH]c2c1 (centres undefined)	active: 6.57 µM
Oc1[nH]c2ccccc2c1N=Nc1ccc(F)cc1	inconclusive: 18.5 µM [inhibitor, single point]
Cc1nc(-c2nc(-c3c(C(=O)NNC(=O)Nc4ccccc4)noc3C)cs2)cs1	inconclusive: 3.7 µM [inhibitor, single point]
COc1cc(C(=O)NC(=S)Nc2ccc(Cl)cn2)cc(OC)c1OC	inactive
CS(=O)(=O)c1ccc(Cl)c(NC(=O)Nc2ccccc2)c1	inconclusive: 0.928 µM [inhibitor, partial curve, poor fit]
CCN(Cc1ccc(OC)c(COC)c1)CC1CCCN(CCc2cccc(F)c2)C1 (centres undefined)	inconclusive: 14.7 µM [inhibitor, partial curve]
CCCc1sc(N)nc1-c1ccc(Cl)cc1	inconclusive: 18.5 µM [inhibitor, single point]
Cc1ccc(NC(=O)C(NC2CCCc3ccccc32)c2ccccc2)cc1Cl (centres undefined)	inconclusive: 18.5 µM [inhibitor, single point]
CCOc1ccc(-c2nc(C#N)c(N3CCCCCC3)o2)cc1	inactive
Cc1ccc(-n2nc3c(=O)n(C(C)C(=O)NCc4ccc5c(c4)OCO5)nc(C)c3c2C)cc1 (centres undefined)	active: 1.31 µM
O=C(CSc1nnc(Cc2cc(=O)[nH]c(=O)[nH]2)n1-c1ccc(Cl)cc1)N1CCc2ccccc21	inconclusive: 2.62 µM [inhibitor, full curve, poor fit]
CCCCC(=O)Nc1nc2c(OC)ccc(OC)c2s1	inconclusive: 18.5 µM [inhibitor, single point]
NC(=O)CC(NC(=O)Cc1ccc(Cl)cc1)c1ccc(N2CCC(Cc3ccccc3)CC2)c([N+](=O)[O-])c1 (centres undefined)	inconclusive: 9.28 µM [inhibitor, single point]
O=C1N=C(N2CCOCC2)S/C1=C\c1ccccc1OS(=O)(=O)c1ccccc1	inconclusive: 0.928 µM [inhibitor, full curve]
CC1(C)CC(NC(=O)C2CCCCC2C(=O)O)CC(C)(C)N1 (centres undefined)	inconclusive: 13.1 µM [inhibitor, single point]
CN(c1cccc(NC(=O)Nc2ccc(Cl)cc2)c1)S(C)(=O)=O	inactive
CCOc1ccc(CNC(=O)CCS(=O)(=O)Cc2ccc(C)cc2)cc1OC	inactive
O=C(CCc1ccccc1)NNC(=O)Nc1ccc(Cl)cc1	inconclusive: 16.5 µM [inhibitor, single point]
COc1cc(NC(=O)c2ccccc2)c(OC)cc1NC(=O)Cc1ccc(Br)cc1	inconclusive: 18.5 µM [inhibitor, single point]
Cc1ccc(NC(=O)CSc2nnc(C3CC3)n2C)cc1S(=O)(=O)N1CCCCC1	inconclusive: 8.28 µM [inhibitor, partial curve, poor fit]
O=C1NC(=O)C(=Cc2ccc(Oc3ccc([N+](=O)[O-])cc3)cc2)C(=O)N1	inactive
CC(=O)N1c2ccc(S(=O)(=O)N3CCC(C(=O)N4CCN(c5ccccc5F)CC4)CC3)cc2CC1C (centres undefined)	inconclusive: 18.5 µM [inhibitor, single point]
O=C(Nc1nncs1)c1cccc(S(=O)(=O)N2CCCCC2)c1	inconclusive: 18.5 µM [inhibitor, single point]
Cc1ccc(S(=O)(=O)N2CCCCC2)cc1C(=O)OC1CCCCC1=O (centres undefined)	inactive

Of the compounds above, these have an NH in an aromatic ring:
Structure (SMILES)	Potency
C=CCn1c(SCc2nc3ccccc3[nH]2)nnc1-c1cccc(OC)c1	inconclusive: 8.28 µM [inhibitor, partial curve, poor fit]
COc1ccc(CN2CCC(c3nc4ccc(Cl)cc4[nH]3)CC2)cc1	inconclusive: 8.28 µM [inhibitor, partial curve]
O=c1[nH]c(NCc2ccccc2)nc2c1CCCC2	active: 8.28 µM
CC(C)NC(=O)c1sc(=S)n2c1[nH]c(=O)c1ccc(C(=O)NCCc3ccc(Cl)cc3)cc12	inconclusive: 14.7 µM [inhibitor, partial curve]
Cc1ccc2cc(C(c3nnnn3Cc3ccccc3)N3CCc4ccccc43)c(=O)[nH]c2c1 (centres undefined)	active: 6.57 µM
Oc1[nH]c2ccccc2c1N=Nc1ccc(F)cc1	inconclusive: 18.5 µM [inhibitor, single point]
O=C(CSc1nnc(Cc2cc(=O)[nH]c(=O)[nH]2)n1-c1ccc(Cl)cc1)N1CCc2ccccc21	inconclusive: 2.62 µM [inhibitor, full curve, poor fit]

A run of entries of the results above, for reference:
Structure (SMILES)	Potency
O=C(CCc1ccccc1)NNC(=O)Nc1ccc(Cl)cc1	inconclusive: 16.5 µM [inhibitor, single point]
COc1cc(NC(=O)c2ccccc2)c(OC)cc1NC(=O)Cc1ccc(Br)cc1	inconclusive: 18.5 µM [inhibitor, single point]
